From publication PMC7819943, “Rice protein-binding microarrays: a tool to detect cis-acting elements near promoter regions in rice” come the findings set out here.

Some of the results follow.

For this assay, the target named is T1, OsSMF1 (Oryza sativa, UniProt Q6ZLB0 1-436).
T1 sequence: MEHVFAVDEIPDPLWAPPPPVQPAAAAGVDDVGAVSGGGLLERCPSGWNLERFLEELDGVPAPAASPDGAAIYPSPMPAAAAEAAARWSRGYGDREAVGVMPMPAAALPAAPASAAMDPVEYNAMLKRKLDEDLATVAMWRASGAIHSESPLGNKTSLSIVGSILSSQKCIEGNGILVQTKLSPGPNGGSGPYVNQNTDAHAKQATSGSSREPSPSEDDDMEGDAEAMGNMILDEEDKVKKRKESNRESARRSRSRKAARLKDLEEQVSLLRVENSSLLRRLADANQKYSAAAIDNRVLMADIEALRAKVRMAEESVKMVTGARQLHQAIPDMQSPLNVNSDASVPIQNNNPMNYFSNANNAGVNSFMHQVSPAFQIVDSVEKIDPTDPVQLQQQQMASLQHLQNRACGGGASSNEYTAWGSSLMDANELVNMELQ
Nature of the assay: protein-binding microarray (RPBM); PBS, 2% BSA, 51.3 ng/ul salmon testes DNA, 50 uM zinc acetate, 200 nM TF, 25 C, 1 h; high values mean tight binding. As to conditions: protein: recombinant; tags: N-terminal polyhistidine and DsRed monomer fusion (pET32a); chain copies: 2; label: CyDye5-dUTP incorporated in the synthesized complementary strand; 3' TTTTT single-stranded linker to array surface; dsDNA, one strand shown. A digest of the protocol:
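Per-feature fluorescence intensity (arbitrary units), read on an Axon 4000B scanner, is the binding signal. Transcription factors carrying an N-terminal polyhistidine tag and DsRed fusion were expressed in E. coli BL21-CodonPlus and purified on Ni–NTA. A custom Agilent array, made double-stranded by primer extension with Cy5-dUTP and blocked with 2% BSA, was incubated with 200 nM protein in PBS, 2% BSA, salmon testes DNA and 50 µM zinc acetate at 25 °C for 1 h and then washed.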
Turning to “CCACTTGTATCCCCTTAGTTCATCCTCCTTCCACCTCTATCGGAGTCACCTAGTGCAG”, the binding signal was 3250 fluorescence intensity (a.u.). To “GTTCTCCCAGGTGGAGTCGACGCGAGCCCACGCGCTGTAGCGGAGTCACCTAGTGCAG” belongs 3650 fluorescence intensity (a.u.). To “CAGTCCCGAATCGTATGTTGGACACGCCAACACACACCATCGGAGTCACCTAGTGCAG” belongs 4120 fluorescence intensity (a.u.). Turning to “AAAGAGCATATACAATCATCAGTGTTTTCTCATCTGAAACCGGAGTCACCTAGTGCAG”, the binding signal is 13500 fluorescence intensity (a.u.). In the case of “TGGTGGCCCGGCGGGCGGGCGGGGCGGGGCGGACGAACGGCGGAGTCACCTAGTGCAG”, the binding signal was 5500 fluorescence intensity (a.u.).

Consider “CACACTCATTGCGTGTGTGTCGAAGACGGCCGGGCGCTGCCGGAGTCACCTAGTGCAG”, for which the binding signal was 33900 fluorescence intensity (a.u.). With “TTTCTGAATTTCCGGCGACACGCACGGTTGCCATCACCGTCGGAGTCACCTAGTGCAG”, the binding signal was 3370 fluorescence intensity (a.u.). For the sequence “AATTTATATTTCCTTTATATCATCATTATACTATATATTACGGAGTCACCTAGTGCAG”, the binding signal is 4290 fluorescence intensity (a.u.). To “AACGACCGACCGCGCTTGATGCGTCACCATGATTACCTGGCGGAGTCACCTAGTGCAG” belongs 7680 fluorescence intensity (a.u.).

As for “TTGTTTGCTGCTAATGAGTCAAGTTGGAGATAGCTTGGTCCGGAGTCACCTAGTGCAG”, the binding signal is 3270 fluorescence intensity (a.u.).

As to “CATCCGTATTTGAGTCAGTTTTAAAGTTTGTTCGCTTTTGCGGAGTCACCTAGTGCAG”, the binding signal is 3260 fluorescence intensity (a.u.).

Consider “AAATGCGAGAAGAGAATGCGCGTTGACTGGACAGGCTCCTCGGAGTCACCTAGTGCAG”, for which the binding signal was 3260 fluorescence intensity (a.u.). As to “GCGCCGTCTCCCTCACCGTTACCGGCGTCATCGTAGTTGACGGAGTCACCTAGTGCAG”, the binding signal was 5290 fluorescence intensity (a.u.). To “AAAGCCCAGTACGACAGTGAGGCCGAACAGAACGCCCTGGCGGAGTCACCTAGTGCAG” belongs 23900 fluorescence intensity (a.u.).

Consider “ACCAAATTAAGTGTTGTTTTGCCAAAATCTTGACAATTATCGGAGTCACCTAGTGCAG”, for which the binding signal is 19700 fluorescence intensity (a.u.).

As to “TGCCAAATCATCACTCCGGTCTACGTGGCCAGCATATCGCCGGAGTCACCTAGTGCAG”, the binding signal was 12500 fluorescence intensity (a.u.). Regarding “CTCTACTGTAATTCTTCTAAAGCATCATGTTGTACTAACTCGGAGTCACCTAGTGCAG”, the binding signal was 3460 fluorescence intensity (a.u.). On to “CTTGTGGTGATCTATGTTACACTGTGTCATGCTCTTCTTCCGGAGTCACCTAGTGCAG”, for which the binding signal was 3160 fluorescence intensity (a.u.). To “ACACTTGAACTGACTCAGGAACCTTGTTCTATGGCTTGCCCGGAGTCACCTAGTGCAG” belongs 3630 fluorescence intensity (a.u.); to “TCTCGGTTGCTTCCTCGCCGTTGTGTGAATGCGCACGTGGCGGAGTCACCTAGTGCAG”, 9260 fluorescence intensity (a.u.); to “GAGACGCGACGCGAGTGGATGACGTGGCTATGGGTGGGCGCGGAGTCACCTAGTGCAG”, 15400 fluorescence intensity (a.u.).

Take “AATATATATCTTGTGTGTCTTTGCAAGTGTCTGCAATTGTCGGAGTCACCTAGTGCAG”: the binding signal was 3200 fluorescence intensity (a.u.). To “AAGAATTTGAACTCTACCTAGTGCGTGTACTATTATGTCACGGAGTCACCTAGTGCAG” belongs 4180 fluorescence intensity (a.u.). As to “ATATGGTGCACATGATTACTAGTTTTATTAATACGTGGTACGGAGTCACCTAGTGCAG”, the binding signal was 3850 fluorescence intensity (a.u.). In the case of “GGTCACAATCACGGAGAGGAAGCGGATAGAAGATGTTGCTCGGAGTCACCTAGTGCAG”, the binding signal was 3200 fluorescence intensity (a.u.). To “ATACCATTATAAATACTATCTTGTGAGTCAATTACATTGGCGGAGTCACCTAGTGCAG” belongs 3150 fluorescence intensity (a.u.); to “TTGGGTTGATATGTTGCTGAATGGTCATTTTCTGGGTTAACGGAGTCACCTAGTGCAG”, 3910 fluorescence intensity (a.u.). To “CGCCGCCATCTCGCCGCCGCCGCCACCTCACCCAACCAATCGGAGTCACCTAGTGCAG” belongs 7710 fluorescence intensity (a.u.); to “TTGTTAAGCAGAGTCTTATATGCTTCATTCTTTATAATAACGGAGTCACCTAGTGCAG”, 3350 fluorescence intensity (a.u.). To “TTCGCTCGCCACCTCCTCCATTTCGGCCACGCGGACCACCCGGAGTCACCTAGTGCAG” belongs 6300 fluorescence intensity (a.u.); to “GCCTATTTCTGTAAATATTTTCGCCGGTATAATATTTATGCGGAGTCACCTAGTGCAG”, 3260 fluorescence intensity (a.u.); to “TCAGCCACCAAACTCGCAGAATTGTGGCTGTTTTCTTCCTCGGAGTCACCTAGTGCAG”, 3460 fluorescence intensity (a.u.). On to “GTTTATCCGGCGCCTCATCTCCGGTGTGGTCAGACAGCCACGGAGTCACCTAGTGCAG”, for which the binding signal was 3210 fluorescence intensity (a.u.). To “CAGGCGCTCGCGGTCGGGGTCGGGGAGGAGGGAGAATCTCCGGAGTCACCTAGTGCAG” belongs 4240 fluorescence intensity (a.u.); to “GTCCAAACCCCATTTGACTCGGTCTGCTCGCTGACGTGGCCGGAGTCACCTAGTGCAG”, 28800 fluorescence intensity (a.u.). For “CAGAACCGCGCACAACGGAGGGCATTTACGTCATTCCACCCGGAGTCACCTAGTGCAG”, the binding signal was 3310 fluorescence intensity (a.u.). To “CTAGTTCGCCTTCCACGTACGCACTTGGCGTCGTATCTGCCGGAGTCACCTAGTGCAG” belongs 6440 fluorescence intensity (a.u.).

Consider “CTCTCGACTGTGACTCTCCCCGTGTTTGGGCCACACGAAACGGAGTCACCTAGTGCAG”, for which the binding signal was 3200 fluorescence intensity (a.u.).

Consider “ACTCCCTCGACGGTTTTGGAGGGCGATTTTGCTGACGTGGCGGAGTCACCTAGTGCAG”, for which the binding signal was 47600 fluorescence intensity (a.u.). To “GCAAAACCTTACTTTTGTCTACGCTTTTGTGCTTTGTCAGCGGAGTCACCTAGTGCAG” belongs 3930 fluorescence intensity (a.u.); to “TTTGAGGCAGAGCATTTAATAAGCTTGCCGTGGACCCGTGCGGAGTCACCTAGTGCAG”, 3230 fluorescence intensity (a.u.). To “TGCTATGCATATATGGCCGTTGCACGTGGGAATAGACAGTCGGAGTCACCTAGTGCAG” belongs 4120 fluorescence intensity (a.u.); to “GCGGCGACGTCCACGCCATCGTGTTCTTCCCCGGCGGGTCCGGAGTCACCTAGTGCAG”, 4680 fluorescence intensity (a.u.); to “CCTCCGTTTCACAATGTAAGTCATTCTAGCATTTCCCACACGGAGTCACCTAGTGCAG”, 32900 fluorescence intensity (a.u.). For the sequence “AACTCCCGCGATGACCGCGCGCTGACCACGCCTCGCTCTCCGGAGTCACCTAGTGCAG”, the binding signal is 3910 fluorescence intensity (a.u.). As to “GCATCAAAGTAGGGACGATATATATATATATACTCCGACGCGGAGTCACCTAGTGCAG”, the binding signal is 3360 fluorescence intensity (a.u.). To “TCTCACCTCTTCCCATCTACTCCTACATGCAGACAAGCTGCGGAGTCACCTAGTGCAG” belongs 3850 fluorescence intensity (a.u.).

On to “GAAATGTTGGTGACGGTGGAGGATTTTGTTGTTTTAGTGTCGGAGTCACCTAGTGCAG”, for which the binding signal is 3950 fluorescence intensity (a.u.).

As for “GCCCACACGACAGTAACCCAGGGGACCCACGTGCACCGGGCGGAGTCACCTAGTGCAG”, the binding signal is 6150 fluorescence intensity (a.u.). To “GTGGAGGAGGAAGAAGCTGACACGACGGAGCAGAGCTCGGCGGAGTCACCTAGTGCAG” belongs 4620 fluorescence intensity (a.u.). To “TGTACTCGTCACGTCATATGCTTCGCACCTGTGCAAGCTGCGGAGTCACCTAGTGCAG” belongs 4720 fluorescence intensity (a.u.).

Regarding “AAATACCATCATGTCAGCTGCAGGTCCTCATCGAGGCCGGCGGAGTCACCTAGTGCAG”, the binding signal was 4060 fluorescence intensity (a.u.). With “TATGTTCTGTCAAGTCATTGACACATGATATTGTAATGTTCGGAGTCACCTAGTGCAG”, the binding signal is 3220 fluorescence intensity (a.u.). To “CACTGTACACCTGGATCTCTCGATCGATCCCATATACCAGCGGAGTCACCTAGTGCAG” belongs 3940 fluorescence intensity (a.u.).
